Data: article PMC2682573, “A Novel Two Mode-Acting Inhibitor of ABCG2-Mediated Multidrug Transport and Resistance in Cancer Chemotherapy” (PLoS ONE, 2009)
These are yes or no findings as the source states them, for the method shown. In cells and extracts the contact can be indirect. Some entries that bind do so weakly or less than the wild type. Sequences can lack the tags named with a protein.

Target: T1, Myc- and HA-tagged ABCG2 (human), Q9UNQ0
T1 chain: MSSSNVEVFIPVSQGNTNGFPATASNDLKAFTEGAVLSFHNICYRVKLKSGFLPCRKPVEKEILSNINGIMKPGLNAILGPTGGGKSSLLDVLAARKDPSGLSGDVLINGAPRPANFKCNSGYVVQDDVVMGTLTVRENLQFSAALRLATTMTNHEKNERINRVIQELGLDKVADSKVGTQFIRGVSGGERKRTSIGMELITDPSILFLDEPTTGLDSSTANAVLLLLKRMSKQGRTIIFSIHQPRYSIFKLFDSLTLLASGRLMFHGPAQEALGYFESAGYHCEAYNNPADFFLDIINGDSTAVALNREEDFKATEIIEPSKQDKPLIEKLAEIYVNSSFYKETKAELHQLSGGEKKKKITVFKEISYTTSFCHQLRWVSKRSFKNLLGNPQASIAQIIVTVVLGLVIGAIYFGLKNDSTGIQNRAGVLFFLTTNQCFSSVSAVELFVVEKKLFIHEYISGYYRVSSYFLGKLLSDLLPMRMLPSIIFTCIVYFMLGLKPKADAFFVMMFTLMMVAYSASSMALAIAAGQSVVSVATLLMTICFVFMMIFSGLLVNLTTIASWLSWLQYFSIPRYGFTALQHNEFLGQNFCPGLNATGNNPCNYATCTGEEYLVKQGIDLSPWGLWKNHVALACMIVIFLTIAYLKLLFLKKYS
Experiment: co-IP; HEK293 cells co-transfected with Myc- and HA-tagged ABCG2, exposed to 3.3 µM PZ-39 for 6 hrs; cell lysates immunoprecipitated with anti-Myc or anti-HA monoclonal antibody, western blot probed with anti-HA and anti-Myc antibody
Conditions: remark: other sources report otherwise

B1: Myc- and HA-tagged ABCG2, Q9UNQ0 1-655 (protein)
chain: MSSSNVEVFIPVSQGNTNGFPATASNDLKAFTEGAVLSFHNICYRVKLKSGFLPCRKPVEKEILSNINGIMKPGLNAILGPTGGGKSSLLDVLAARKDPSGLSGDVLINGAPRPANFKCNSGYVVQDDVVMGTLTVRENLQFSAALRLATTMTNHEKNERINRVIQELGLDKVADSKVGTQFIRGVSGGERKRTSIGMELITDPSILFLDEPTTGLDSSTANAVLLLLKRMSKQGRTIIFSIHQPRYSIFKLFDSLTLLASGRLMFHGPAQEALGYFESAGYHCEAYNNPADFFLDIINGDSTAVALNREEDFKATEIIEPSKQDKPLIEKLAEIYVNSSFYKETKAELHQLSGGEKKKKITVFKEISYTTSFCHQLRWVSKRSFKNLLGNPQASIAQIIVTVVLGLVIGAIYFGLKNDSTGIQNRAGVLFFLTTNQCFSSVSAVELFVVEKKLFIHEYISGYYRVSSYFLGKLLSDLLPMRMLPSIIFTCIVYFMLGLKPKADAFFVMMFTLMMVAYSASSMALAIAAGQSVVSVATLLMTICFVFMMIFSGLLVNLTTIASWLSWLQYFSIPRYGFTALQHNEFLGQNFCPGLNATGNNPCNYATCTGEEYLVKQGIDLSPWGLWKNHVALACMIVIFLTIAYLKLLFLKKYS
- binding: binds
